The values that follow come from US20090203538A1.

This assay deals with HER1 (Homo sapiens (Human)). The experiment in a line: antigen assigned by the filing's classifying and identification method; details for this clone not given.

Results are given in words; binding and its absence hold for the method and conditions named. A result given as binding can be weak or reduced; the word gives no strength.

B1: 067-149 antibody (antibody, V domains shown)
VH: QVQLQESGGGLVKPGGSLRLSCAASGFSFSDYYMSWVRQAPGKGLEWISYITSSSSDTDYADSVKGRFTISRDNAKNSLYLQMNSLRADDTAVYYCARVGYYYDYYYYYYMDVWGKGTTVTVSR
VL: SSELTQDPAVSVALGQTVRITCQGDSLRGYYASWYQQKPGQAPVLVVYDENNRPSGIPDRFSGSSSGNTASLTITGAQAEDEADYYCNSRDINLDWVFGGGTKLTVLG
For B1, the binding result is on record as “binds”.
